The target in assay [1] is T1, PCGF3 (human (endogenous in human PSCs)) (UniProt Q3KNV8).
T1 sequence: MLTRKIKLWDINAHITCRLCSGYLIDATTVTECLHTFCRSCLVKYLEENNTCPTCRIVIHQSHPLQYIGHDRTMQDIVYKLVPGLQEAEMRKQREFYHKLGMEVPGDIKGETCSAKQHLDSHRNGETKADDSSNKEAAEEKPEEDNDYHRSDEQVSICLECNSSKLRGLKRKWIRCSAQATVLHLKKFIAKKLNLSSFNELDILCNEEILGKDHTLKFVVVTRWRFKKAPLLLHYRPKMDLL
The assay can be described thus: affinity purification with mass spectrometry; qPLEX-RIME: cells cross-linked with di(N-succinimidyl) glutarate and paraformaldehyde, chromatin sonicated, anti-PCGF3+5 antibody on Protein A beads, 10 washes in RIPA with 500 mM LiCl, TMT mass spectrometry; naïve, 48-hour 5i/L/A and primed PSCs; control primed PSCs lacking PCGF3 and PCGF5.

By UniProt entry, the sequences of proteins in these tests, tags left out.
UniProt Q02539: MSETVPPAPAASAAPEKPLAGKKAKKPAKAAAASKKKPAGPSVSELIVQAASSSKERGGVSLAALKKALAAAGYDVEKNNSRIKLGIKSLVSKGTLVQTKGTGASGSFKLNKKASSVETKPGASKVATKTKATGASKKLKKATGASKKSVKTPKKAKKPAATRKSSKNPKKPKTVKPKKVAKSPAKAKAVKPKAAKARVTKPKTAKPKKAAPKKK
UniProt Q9UJW3: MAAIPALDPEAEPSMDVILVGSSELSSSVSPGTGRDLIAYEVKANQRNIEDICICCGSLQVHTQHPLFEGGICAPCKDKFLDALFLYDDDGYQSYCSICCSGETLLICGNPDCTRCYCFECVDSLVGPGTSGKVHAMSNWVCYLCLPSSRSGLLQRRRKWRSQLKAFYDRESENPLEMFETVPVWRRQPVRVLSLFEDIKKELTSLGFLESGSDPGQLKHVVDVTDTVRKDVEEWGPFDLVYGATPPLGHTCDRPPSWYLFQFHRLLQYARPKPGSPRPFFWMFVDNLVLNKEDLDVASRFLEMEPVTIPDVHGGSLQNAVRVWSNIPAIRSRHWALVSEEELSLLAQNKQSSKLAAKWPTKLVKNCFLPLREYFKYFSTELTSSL

The target in assay [2] is T1, PCGF3 (human (endogenous in human PSCs)). Described as above. The source holds these as a separate data set.

Like-named read-outs stand apart in the source and are kept apart here. These are yes or no findings as the source states them, for the method shown. In cells and extracts the contact can be indirect. Here binding means that the protein was enriched with, or labelled near, the bait; the list need not be complete.

As to “linker DNA binding histone protein HISTH1.1 (from UniProt Q02539 1-215)”, in assay [1], the binding result is on record as “binds”.
Turning to “DNA methyltransferase regulator DNMT3L (from UniProt Q9UJW3 1-386)”, in assay [1], the binding entry is on record as “binds”.

B1: PR/SET domain 14 (PRDM14) (protein, UniProt Q9GZV8 1-571)
chain: MALPRPSEAVPQDKVCYPPESSPQNLAAYYTPFPSYGHYRNSLATVEEDFQPFRQLEAAASAAPAMPPFPFRMAPPLLSPGLGLQREPLYDLPWYSKLPPWYPIPHVPREVPPFLSSSHEYAGASSEDLGHQIIGGDNESGPCCGPDTLIPPPPADASLLPEGLRTSQLLPCSPSKQSEDGPKPSNQEGKSPARFQFTEEDLHFVLYGVTPSLEHPASLHHAISGLLVPPDSSGSDSLPQTLDKDSLQLPEGLCLMQTVFGEVPHFGVFCSSFIAKGVRFGPFQGKVVNASEVKTYGDNSVMWEIFEDGHLSHFIDGKGGTGNWMSYVNCARFPKEQNLVAVQCQGHIFYESCKEIHQNQELLVWYGDCYEKFLDIPVSLQVTEPGKQPSGPSEESAEGYRCERCGKVFTYKYYRDKHLKYTPCVDKGDRKFPCSLCKRSFEKRDRLRIHILHVHEKHRPHKCSTCGKCFSQSSSLNKHMRVHSGDRPYQCVYCTKRFTASSILRTHIRQHSGEKPFKCKYCGKSFASHAAHDSHVRRSHKEDDGCSCSICGKIFSDQETFYSHMKFHEDY
Take B1: in assay [2], the binding entry is “binds”.

B2: Activator of transcription and developmental regulator (AUTS2) (protein, UniProt Q8WXX7 1-1259)
chain: MDGPTRGHGLRKKRRSRSQRDRERRSRGGLGAGAAGGGGAGRTRALSLASSSGSDKEDNGKPPSSAPSRPRPPRRKRRESTSAEEDIIDGFAMTSFVTFEALEKDVALKPQERVEKRQTPLTKKKREALTNGLSFHSKKSRLSHPHHYSSDRENDRNLCQHLGKRKKMPKALRQLKPGQNSCRDSDSESASGESKGFHRSSSRERLSDSSAPSSLGTGYFCDSDSDQEEKASDASSEKLFNTVIVNKDPELGVGTLPEHDSQDAGPIVPKISGLERSQEKSQDCCKEPIFEPVVLKDPCPQVAQPIPQPQTEPQLRAPSPDPDLVQRTEAPPQPPPLSTQPPQGPPEAQLQPAPQPQVQRPPRPQSPTQLLHQNLPPVQAHPSAQSLSQPLSAYNSSSLSLNSLSSSRSSTPAKTQPAPPHISHHPSASPFPLSLPNHSPLHSFTPTLQPPAHSHHPNMFAPPTALPPPPPLTSGSLQVAGHPAGSTYSEQDILRQELNTRFLASQSADRGASLGPPPYLRTEFHQHQHQHQHTHQHTHQHTFTPFPHAIPPTAIMPTPAPPMFDKYPTKVDPFYRHSLFHSYPPAVSGIPPMIPPTGPFGSLQGAFQPKTSNPIDVAARPGTVPHTLLQKDPRLTDPFRPMLRKPGKWCAMHVHIAWQIYHHQQKVKKQMQSDPHKLDFGLKPEFLSRPPGPSLFGAIHHPHDLARPSTLFSAAGAAHPTGTPFGPPPHHSNFLNPAAHLEPFNRPSTFTGLAAVGGNAFGGLGNPSVTPNSMFGHKDGPSVQNFSNPHEPWNRLHRTPPSFPTPPPWLKPGELERSASAAAHDRDRDVDKRDSSVSKDDKERESVEKRHSSHPSPAPVLPVNALGHTRSSTEQIRAHLNTEAREKDKPKERERDHSESRKDLAADEHKAKEGHLPEKDGHGHEGRAAGEEAKQLARVPSPYVRTPVVESARPNSTSSREAEPRKGEPAYENPKKSSEVKVKEERKEDHDLPPEAPQTHRASEPPPPNSSSSVHPGPLASMPMTVGVTGIHPMNSISSLDRTRMMTPFMGISPLPGGERFPYPSFHWDPIRDPLRDPYRELDIHRRDPLGRDFLLRNDPLHRLSTPRLYEADRSFRDREPHDYSHHHHHHHHPLSVDPRREHERGGHLDERERLHMLREDYEHTRLHSVHPASLDGHLPHPSLITPGLPSMHYPRISPTAGNQNGLLNKTPPTAALSAPPPLISTLGGRPVSPRRTTPLSAEIRERPPSHTLKDIEAR
For the molecule B2, in assay [2], the binding result was “binds”.

B3: Fibrosin (FBRS) (protein, UniProt Q9HAH7 1-460)
chain: MFEKYPGKMEGLFRHNPYTAFPPAVPGLPPGLPPAVSFGSLQGAFQPKSTNPELPPRLGPVPSGLSQKGTQIPDHFRPPLRKPGKWCAMHVRVAYMILRHQEKMKGDSHKLDFRNDLLPCLPGPYGALPPGQELSHPASLFTATGAVHAAANPFTAAPGAHGPFLSPSTHIDPFGRPTSFASLAALSNGAFGGLGSPTFNSGAVFAQKESPGAPPAFASPPDPWGRLHRSPLTFPAWVRPPEAARTPGSDKERPVERREPSITKEEKDRDLPFSRPQLRVSPATPKARAGEEGPRPTKESVRVKEERKEEAAAAAAAAAAAAAAAAAAATGPQGLHLLFERPRPPPFLGPSPPDRCAGFLEPTWLAAPPRLARPPRFYEAGEELTGPGAVAAARLYGLEPAHPLLYSRLAPPPPPAAAPGTPHLLSKTPPGALLGAPPPLVPAPRPSSPPRGPGPARADR
Take B3: the binding result in assay [2] is given as “binds”.

Source of the values: PMC8956265.
